We go through 68 sequences from PubChem BioAssay AID1508600 (Functional Genomics Laboratory (NCATS/FGL), 2020).

Out of some 53,000 sequences screened, about 3,700 (7%) were called active.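 How the source made its calls: active means gene knockdowns whose robust z-score for IL-1 alpha signal is at least 2 or at most -2, so actives lie on both sides; inactive means the rest.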 Some of the results follow.

A short description of this test: Components of the Cytosolic LPS Sensing Pathway: Gene Identification via Genome-wide siRNA Screen.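 Further: robust z of the log signal after scaling to non-targeting control siRNA wells of the plate.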 The conditions noted are these: RAW264.7 macrophages, IL-1a HTRF, actives lie on both sides, screened at 100 nM (by protocol), cells primed 5 h with Pam3CSK4 first. Summed up:
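RAW264.7 mouse macrophages reverse-transfected with single siRNAs (100 nM final) for 48h, primed with Pam3CSK4 for 5 hours, then transfected with LipidA for 24 hour. Supernatant IL-1a read by HTRF; values normalized to negative-control median, log-transformed robust z-scores.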
On to GGACAAUGAGCUUGAAUACTT against Ccne1, for which the z-score was inactive: -0.274. To GGUGACCACUUUUAUCUGATT against Olah belongs inactive: 0.601. To CCUCUUAGCUAGAUCUUACTT against Smu1 belongs active: -2.41; to CCUUAGGAUGACCUAAGGGTT against Bsdc1, inactive: -0.744; to GGUACUGGAGGGACUUAGATT against Apobr, inactive: -1.98. In the case of GCCUUGAACUAUGCAUAGATT against Eno2 it was inactive: 1.7. For CCUGGUCACUCCAAACCCATT against Zfp950, the z-score is active: -2.11. CCCAGUGUACUUGUCAUUUTT against Rhob: the z-score was inactive: 0.711.

Turning to ACCCUCAAUGAUUCAGGAATT against Olfr1344, the z-score was inactive: 1.79. In the case of GUGAUAAACCUGGGACACATT against Lyl1 it was inactive: -0.0379. To GGGACAAAAUGUGAAGACUTT against Reg3b belongs inactive: 1.53; to CCAAAAACUGGGAGUUCGUTT against Olfr513, inactive: -1.41. To CGGAAGAUGUUAAAACUAUTT against Slc44a3 belongs inactive: -1.33.

As to CCUCUAAAUAGAGGAUAAGTT against Zfp467, the z-score is inactive: -0.203. To GCCUCUCGUGAAGAACAUATT against Cdkl1 belongs inactive: -0.138; to GCUCCACUGAUACUGUUGUTT against Cyp4a10, inactive: -0.831. In the case of GGGCUACGAUGUGGAGUUUTT against Traf6 it was inactive: -0.777; in that of GGAUUUGGCUUUGUAACUUTT against Hnrnpa2b1, inactive: 0.968. Take CGUGAAUGAGUCUAUACUGTT against Nop10: the z-score is inactive: 0.609. To GCCCAUGGAUACAGAAACUTT against Alpk3 belongs inactive: -0.852; to CCACAUGUCCAAUCAGAAUTT against Eef2k, inactive: 0.289; to GGAAGGACUAUUUUCUUUCTT against Trak1, inactive: 1.5. As to GCGUCAAAAUUAUCCGAAATT against Trnau1ap, the z-score is inactive: 0.124. To CGUACCACACGAUGAAUAGTT against Pou4f1 belongs inactive: -0.525.

Regarding CCGAUUCGUUGGUAUUAACTT against Zadh2, the z-score was inactive: -0.0878. In the case of GGACCUUCUUCUGUCCCUUTT against Ceacam19, the z-score was inactive: 0.134. To UAAAUGAGCUCGUAAUCUUTT against Olfr874 belongs active: 3.23; to CCUAGGUGUCGUACACAAATT against Galns, active: 2.45. To CGUUAGCAGGCAACAAAUCTT against Cyp2d13 belongs inactive: -1.04. GUACUACAUGGAUCUCAAGTT against Pura: the z-score was inactive: 1.59.

Regarding GGAGGUAGAGAUGUCCACCTT against Serpinb6b, the z-score is inactive: 0.866. To GCACUUCUCAGUCUAUAACTT against Gm773 belongs inactive: 1.66. Regarding GGAACAGUUCCUUGUGGUUTT against Uqcrh, the z-score was inactive: 0.935.

Turning to GGGAGUUAAGAGCAUUCUCTT against Prl2a1, the z-score was inactive: 0.818. In the case of GGGAAAUUCUGUCUAUUUUTT against Bmp5 it was inactive: 1.14. As to GGAGUACAGAAGUAAUCUCTT against Psme3ip1, the z-score was inactive: 1.71.

For the sequence GGAAAACACAGCUACGGAATT against Ak5, the z-score was active: 2.21.

Take CCCUAAUGUGUAAAUGCAATT against Serp1: the z-score is inactive: -0.558.

GCGACUUAGGGAAAGAUACTT against Mtfp1: the z-score is inactive: -0.979.

As for CCACAAGGAACAAUGAUCCTT against Kirrel3, the z-score is inactive: -0.721. To GGGAUCAAUGGCUACCUGUTT against Slc7a10 belongs inactive: -0.0112. For the sequence GGGAAAUUUGGUGGCUACATT against Col14a1, the z-score was inactive: -0.215. On to CCUCCUAUCGGCGAAGAAATT against Olfr282, for which the z-score was inactive: 1.61. As to CAUGGAGGUCCUCAGAGACTT against Prb1, the z-score was inactive: -1.69.

Regarding GGAAGGAAACUGAUUGAGGTT against Slc30a7, the z-score was inactive: -0.336. To GGCUCAUCUGUCUAAAAUUTT against Spag1 belongs inactive: -0.205; to CCCAUCCAAUAAGCAAUUGTT against Lpcat2, inactive: -0.696. To GGAGGAGCAGGAACAGUAUTT against B4gat1 belongs inactive: -0.955. In the case of CCCUAAGCUGAAACGAAAUTT against Tas2r119 it was inactive: 0.611. For the sequence CCCACGGAAAACAAUAUUUTT against Cpeb4, the z-score is inactive: -0.0851. To GCCUAUAAGAACUUUUUCATT against Tnc belongs inactive: 0.497. In the case of GCUUGGACUGGAGUGAAGCTT against Map6d1, the z-score was active: -2.4. As to GGAAAGUCCUGGGAAAUACTT against Olfr697, the z-score is inactive: -0.392.

Consider GCAGAUGUACUCUAAGGGUTT against Adam23, for which the z-score was inactive: 1.17.

Take GAGAAUCCCUUCGAGUACGTT against Fxyd2: the z-score was inactive: 0.528.

As to GGUCAAUGAAGAUGAACUGTT against Fxyd2, the z-score is inactive: 0.905. To GGUUGUCUGGAAUUUCCAUTT against Immp2l belongs active: 3.81; to GCCGUUUCACAGAGUACUCTT against Ltv1, inactive: 0.555; to GGGAGGAAGUGGAAGUUCUTT against Tsc22d1, inactive: 0.488.

Take “GGCUCCAAGCACUAAAUAATT against B130024G19Rik”: the z-score was inactive: 0.168. To GGGUCCAGAAAUCAUGUUATT against Slc35a5 belongs inactive: -0.982; to CGGCAACUAUCCAUUGAAATT against Cyp2c50, inactive: -0.826.

Regarding GGAAUUGAAACCUGAUGUUTT against Srfbp1, the z-score was inactive: 0.239. In the case of GGCAACAUGCGGACAACAUTT against Trim14 it was inactive: -0.42; in that of GCUGUUGAAAGCCUUCUGGTT against Krtap9-3, inactive: 0.571; in that of GGUUACAUGCCCUACCUCATT against Def6, inactive: 0.23. In the case of GCCUAAUUAUGAUAGCAGUTT against Olfr639 it was inactive: 0.834.

For GGCACAGGGACCAUUGUUGTT against Hsd17b1, the z-score is inactive: -1.72.
